Mtb growth Cornell: 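Whole-cell assay for inhibitors of Mycobacterium tuberculosis growth, labelled Cornell in the record; the read-out is not stated. The concentration is filed as 10 mM, unlikely as a test dose, so the dose is not known. The record gives no direction; compounds strong in two other growth screens of this library score well above the rest, so higher reads as stronger inhibition. Size under these conditions: about 53,000 compounds, about 900 of them at 50% or above in at least one test.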
Mtb heat-shock: 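Assay on Mycobacterium tuberculosis, filed only as a heat shock assay from Cornell; the read-out is not stated. The concentration is filed as 10 mM, unlikely as a test dose, so the dose is not known. The record gives no direction; compounds that gave an IC50 in retests scored well above the rest, so higher reads as stronger inhibition. Size under these conditions: about 69,000 compounds, about 930 of them at 50% or above in at least one test.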

Values are the deposited “Percent Effect”, in %.
How 0% and 100% were set is not recorded. Most values in the screen are low, and negative values occur.
This is an unselected part of the compounds tested.

* CC(C)COCC(NC(=O)c1cc[nH]n1)c1ccco1 (configuration not stated) : Mtb growth Cornell: 1.242%; Mtb heat-shock: -1.9%
* O=C(N[C@@H]1CC[C@@H](N2CCCC2)[C@@H]1O)c1cc2ccccc2[nH]1 : Mtb growth Cornell: -6.472%; Mtb heat-shock: 20.37%
* N#Cc1cn(C2CC2)c(=O)n(Cc2noc(-c3ccsc3)n2)c1=O : Mtb heat-shock: 30.2%
* CNS(=O)(=O)Cc1ccccc1CNc1ccc(C#N)cn1 : Mtb growth Cornell: -13.58%; Mtb heat-shock: -9.301%
* COCCOc1ccc(NC(=O)N(C(C)C)C2CC2)cn1 : Mtb growth Cornell: 4.445%; Mtb heat-shock: 1.535%
* CCN(C1CCN(Cc2ncc(C(C)(C)C)o2)CC1)S(C)(=O)=O : Mtb heat-shock: -17.35%
* CCNc1ncc(C(=O)Nc2nnc(N3CCCCC3)[nH]2)s1 : Mtb growth Cornell: -22.01%; Mtb heat-shock: 3.901%
* NC(=O)c1cncc(N2CCN(Cc3ccc(F)cc3Cl)CC2)n1 : Mtb growth Cornell: -9.003%; Mtb heat-shock: 3.741%
* [H][C@@]12C[C@H](C(=O)NCc3ccco3)CN(C(=O)c3ccoc3C)[C@]1([H])CCO2 : Mtb growth Cornell: 0.2617%; Mtb heat-shock: -17.5%
* CCC[C@H]1CN(Cc2ccc(N(C)C)nc2)C[C@@H]1NC(=O)CCOC : Mtb growth Cornell: 12.02%; Mtb heat-shock: -29.12%
* Cc1csc(Nc2cc(C3CN(c4ccncn4)C3)nc(C)n2)n1 : Mtb growth Cornell: 23.54%; Mtb heat-shock: 30.76%
* COC(=O)C(NC(=O)c1ccc(N(C)C)nc1)c1ccccc1 (configuration not stated) : Mtb growth Cornell: 107.9%; Mtb heat-shock: 22%
* COCCn1ccnc1C1CCCN(C(=O)CSCC2CC2)C1 (configuration not stated) : Mtb growth Cornell: 9.209%; Mtb heat-shock: 75.33%
* O=C(O)c1cc(-c2ccoc2)cc(S(=O)(=O)NCc2ccccn2)c1 : Mtb growth Cornell: -15.91%; Mtb heat-shock: 3.106%
* CC(C)c1nsc(N2CCSCC2)n1 : Mtb growth Cornell: 8.046%; Mtb heat-shock: 4.597%
* NC(=O)CS(=O)(=O)Cc1csc(-c2ccccc2)n1 : Mtb growth Cornell: 12.4%; Mtb heat-shock: -16.02%
* CCC(C)[C@H](NC(=O)c1ccc(F)cc1-n1cnnn1)C(=O)OC (some centres not stated) : Mtb growth Cornell: 23.89%; Mtb heat-shock: 17.54%
* COCc1nc(N(C)CCSc2ccccc2)c2cnn(C)c2n1 : Mtb growth Cornell: 40.05%; Mtb heat-shock: 21.58%
* Cc1nn(C)c(C)c1CN1CCNCC1 : Mtb heat-shock: -5.546%
* O=C1CN(c2ccc(CNC(=O)c3ccc[nH]3)cc2F)CCN1 : Mtb growth Cornell: -23.14%; Mtb heat-shock: -9.809%
* CCn1nnc2c1C(COCCN(C)C)CN(S(=O)(=O)CC)C2.O=C(O)C(F)(F)F (configuration not stated) : Mtb growth Cornell: 17.72%; Mtb heat-shock: -38.39%
* [H][C@@]12CCN(C)[C@@]1([H])CCN2Cc1ccc2c(c1)OCO2 : Mtb heat-shock: -3.611%
* CCc1nc(N2CCCC(CO)(CCOC)C2)ncc1C (configuration not stated) : Mtb growth Cornell: -6.712%; Mtb heat-shock: -13.67%
* CCCc1c(C(=O)N2CCN(c3nccc(OC)n3)CC2)cnn1C : Mtb growth Cornell: -9.863%; Mtb heat-shock: -8.849%
* [H][C@]12CC[C@]([H])(CN(C(=O)C3CCC3)C1)N(Cc1cnc(NCC)nc1)C2 : Mtb growth Cornell: 12.42%; Mtb heat-shock: -5.344%

The last 3 entries again:

compound	Mtb growth Cornell	Mtb heat-shock
CCc1nc(N2CCCC(CO)(CCOC)C2)ncc1C (configuration not stated)	-6.712	-13.67
CCCc1c(C(=O)N2CCN(c3nccc(OC)n3)CC2)cnn1C	-9.863	-8.849
[H][C@]12CC[C@]([H])(CN(C(=O)C3CCC3)C1)N(Cc1cnc(NCC)nc1)C2	12.42	-5.344

The values are deposited in ChEMBL (CHEMBL3988442, “University of Dundee, Small-Polar-MMV Screening Library” (2021)).